{"sequences": {"note": "Amino acid sequences for entries named in this document (tags omitted).", "UniProt Q9BR11": "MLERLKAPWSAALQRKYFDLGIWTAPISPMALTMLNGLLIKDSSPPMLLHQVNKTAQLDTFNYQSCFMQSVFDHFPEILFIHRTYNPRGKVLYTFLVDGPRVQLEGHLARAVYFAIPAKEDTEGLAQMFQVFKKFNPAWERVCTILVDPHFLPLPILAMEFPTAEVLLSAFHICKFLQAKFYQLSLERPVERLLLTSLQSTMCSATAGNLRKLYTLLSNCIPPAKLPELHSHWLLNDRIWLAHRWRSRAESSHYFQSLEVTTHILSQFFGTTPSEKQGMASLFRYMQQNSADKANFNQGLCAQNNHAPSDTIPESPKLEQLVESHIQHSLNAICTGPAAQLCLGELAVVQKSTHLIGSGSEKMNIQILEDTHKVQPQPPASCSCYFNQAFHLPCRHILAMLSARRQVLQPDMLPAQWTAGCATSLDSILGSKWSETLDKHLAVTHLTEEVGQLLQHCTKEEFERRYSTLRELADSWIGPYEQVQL", "UniProt P19474": "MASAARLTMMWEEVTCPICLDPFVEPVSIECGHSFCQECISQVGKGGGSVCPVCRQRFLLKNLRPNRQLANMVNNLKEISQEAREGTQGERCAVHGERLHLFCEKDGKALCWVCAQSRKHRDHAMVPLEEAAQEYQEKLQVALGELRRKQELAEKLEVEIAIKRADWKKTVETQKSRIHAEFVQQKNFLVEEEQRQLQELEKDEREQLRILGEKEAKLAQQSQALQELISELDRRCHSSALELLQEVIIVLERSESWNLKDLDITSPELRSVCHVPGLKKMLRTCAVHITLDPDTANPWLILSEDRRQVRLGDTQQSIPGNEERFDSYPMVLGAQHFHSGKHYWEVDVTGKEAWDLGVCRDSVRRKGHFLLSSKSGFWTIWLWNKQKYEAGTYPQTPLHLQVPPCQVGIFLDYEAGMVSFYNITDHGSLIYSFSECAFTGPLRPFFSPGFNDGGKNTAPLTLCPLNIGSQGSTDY"}, "source": "paper PMC11183318", "molecular_target": "FLAG-ZSWIM1 (zinc finger SWIM-type containing 1) (human) (UniProt Q9BR11)", "test": "co-IP; anti-FLAG antibody IP (IgG control) from EBC buffer lysate of H1299 cells stably overexpressing FLAG-ZSWIM1 and transiently transfected with HA-TRIM21; Protein A/G agarose, 4 °C overnight; detection by Western blot", "note": "These are yes or no findings as the source states them, for the method shown. Binding seen in cells or lysates may run through a third protein. Some entries that bind do so weakly or less than the wild type.", "data": [{"substance": "HA-TRIM21 (tripartite motif protein 21) (from UniProt P19474 1-475)", "values": [{"measurement": "binding", "value": "binds"}]}]}
